Assay results from PMC5309860 (2017).
No constants are given. Whether binding was seen depends on the method and setting. In cells and extracts the contact can be indirect. Some entries that bind do so weakly or less than the wild type. For some of these results: Where a sequence is shown, tags or fusion partners need not be part of it.

By UniProt entry, the sequences of proteins in these tests, tags left out.
UniProt P25095: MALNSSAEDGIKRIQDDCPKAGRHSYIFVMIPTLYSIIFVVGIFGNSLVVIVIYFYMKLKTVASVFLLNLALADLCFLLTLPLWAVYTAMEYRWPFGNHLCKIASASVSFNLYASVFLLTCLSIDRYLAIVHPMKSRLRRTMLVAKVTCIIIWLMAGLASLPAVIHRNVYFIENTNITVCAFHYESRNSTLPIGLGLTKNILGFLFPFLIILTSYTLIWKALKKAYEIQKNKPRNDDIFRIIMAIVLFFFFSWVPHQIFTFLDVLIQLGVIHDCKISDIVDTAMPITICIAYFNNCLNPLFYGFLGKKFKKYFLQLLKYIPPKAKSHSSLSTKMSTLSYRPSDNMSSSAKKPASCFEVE
UniProt P49407: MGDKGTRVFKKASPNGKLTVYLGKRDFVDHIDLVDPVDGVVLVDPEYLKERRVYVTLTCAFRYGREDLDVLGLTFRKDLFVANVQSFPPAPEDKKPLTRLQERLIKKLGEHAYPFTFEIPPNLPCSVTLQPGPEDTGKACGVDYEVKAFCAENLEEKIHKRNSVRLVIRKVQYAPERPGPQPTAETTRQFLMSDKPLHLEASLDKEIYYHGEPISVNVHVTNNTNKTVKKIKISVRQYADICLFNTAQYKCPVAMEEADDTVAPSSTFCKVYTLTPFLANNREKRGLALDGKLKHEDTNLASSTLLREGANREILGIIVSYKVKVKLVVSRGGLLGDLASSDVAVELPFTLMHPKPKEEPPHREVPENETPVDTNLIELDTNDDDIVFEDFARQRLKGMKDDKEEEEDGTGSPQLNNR

Key:
TRPC3-GFP 1–790 = target: T1, TRPC3-GFP 1–790 (UniProt Q13507); test: co-IP; HEK293 cells co-transfected with Flag-AT1R-cherry, TRPC3-GFP (WT/truncations) and HA-β-arrestin-1 (WT/truncations/mutants); starved 12 h, stimulated 1 min with AngII (100 nM), TRV120055 (30 nM) or TRV120027 (100 nM); lysates precipitated with antibody-conjugated beads overnight at 4 °C, western …
T1 sequence: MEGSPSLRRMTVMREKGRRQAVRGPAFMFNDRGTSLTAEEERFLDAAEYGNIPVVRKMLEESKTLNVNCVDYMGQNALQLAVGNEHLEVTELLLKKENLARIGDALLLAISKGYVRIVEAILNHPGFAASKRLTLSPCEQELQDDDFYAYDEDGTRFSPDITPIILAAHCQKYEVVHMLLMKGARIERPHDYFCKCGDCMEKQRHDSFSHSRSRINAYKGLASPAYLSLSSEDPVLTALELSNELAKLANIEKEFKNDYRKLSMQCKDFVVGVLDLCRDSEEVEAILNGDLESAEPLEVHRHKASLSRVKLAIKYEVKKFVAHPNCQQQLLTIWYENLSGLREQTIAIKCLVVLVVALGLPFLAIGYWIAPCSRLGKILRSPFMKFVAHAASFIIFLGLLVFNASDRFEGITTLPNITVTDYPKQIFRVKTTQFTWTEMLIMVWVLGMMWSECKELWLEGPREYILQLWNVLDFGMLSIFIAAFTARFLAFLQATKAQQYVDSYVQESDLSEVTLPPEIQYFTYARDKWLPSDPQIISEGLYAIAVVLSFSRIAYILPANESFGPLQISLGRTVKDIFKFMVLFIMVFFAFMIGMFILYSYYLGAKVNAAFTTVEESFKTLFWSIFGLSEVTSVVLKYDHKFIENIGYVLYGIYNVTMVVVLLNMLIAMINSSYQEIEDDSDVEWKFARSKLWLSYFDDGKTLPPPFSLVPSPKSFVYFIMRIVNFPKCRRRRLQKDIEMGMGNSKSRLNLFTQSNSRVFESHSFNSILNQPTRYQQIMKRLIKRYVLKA

TRPC3-GFP 178–848 = target: T2, TRPC3-GFP 178–848 (UniProt Q13507); test: as above
T2 sequence: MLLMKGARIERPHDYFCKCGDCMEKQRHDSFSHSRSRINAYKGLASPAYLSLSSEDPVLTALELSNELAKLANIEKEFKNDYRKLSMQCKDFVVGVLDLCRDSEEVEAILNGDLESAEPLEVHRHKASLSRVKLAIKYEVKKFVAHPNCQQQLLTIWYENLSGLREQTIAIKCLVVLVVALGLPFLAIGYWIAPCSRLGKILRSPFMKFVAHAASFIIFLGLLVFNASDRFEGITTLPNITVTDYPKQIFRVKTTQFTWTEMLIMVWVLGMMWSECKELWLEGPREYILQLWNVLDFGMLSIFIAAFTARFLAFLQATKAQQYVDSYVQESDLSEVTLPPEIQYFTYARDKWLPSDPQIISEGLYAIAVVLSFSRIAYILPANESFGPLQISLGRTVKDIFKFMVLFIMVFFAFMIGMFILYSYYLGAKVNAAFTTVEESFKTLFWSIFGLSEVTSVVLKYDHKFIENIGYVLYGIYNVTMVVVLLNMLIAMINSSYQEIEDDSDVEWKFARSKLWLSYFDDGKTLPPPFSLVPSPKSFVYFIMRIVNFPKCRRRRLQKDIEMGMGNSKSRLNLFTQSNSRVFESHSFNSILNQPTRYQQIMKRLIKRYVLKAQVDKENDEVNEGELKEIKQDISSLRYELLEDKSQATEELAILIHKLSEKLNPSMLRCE

TRPC3-GFP (wild type) = target: T3, TRPC3-GFP (wild type) (UniProt Q13507); test: as above
T3 sequence: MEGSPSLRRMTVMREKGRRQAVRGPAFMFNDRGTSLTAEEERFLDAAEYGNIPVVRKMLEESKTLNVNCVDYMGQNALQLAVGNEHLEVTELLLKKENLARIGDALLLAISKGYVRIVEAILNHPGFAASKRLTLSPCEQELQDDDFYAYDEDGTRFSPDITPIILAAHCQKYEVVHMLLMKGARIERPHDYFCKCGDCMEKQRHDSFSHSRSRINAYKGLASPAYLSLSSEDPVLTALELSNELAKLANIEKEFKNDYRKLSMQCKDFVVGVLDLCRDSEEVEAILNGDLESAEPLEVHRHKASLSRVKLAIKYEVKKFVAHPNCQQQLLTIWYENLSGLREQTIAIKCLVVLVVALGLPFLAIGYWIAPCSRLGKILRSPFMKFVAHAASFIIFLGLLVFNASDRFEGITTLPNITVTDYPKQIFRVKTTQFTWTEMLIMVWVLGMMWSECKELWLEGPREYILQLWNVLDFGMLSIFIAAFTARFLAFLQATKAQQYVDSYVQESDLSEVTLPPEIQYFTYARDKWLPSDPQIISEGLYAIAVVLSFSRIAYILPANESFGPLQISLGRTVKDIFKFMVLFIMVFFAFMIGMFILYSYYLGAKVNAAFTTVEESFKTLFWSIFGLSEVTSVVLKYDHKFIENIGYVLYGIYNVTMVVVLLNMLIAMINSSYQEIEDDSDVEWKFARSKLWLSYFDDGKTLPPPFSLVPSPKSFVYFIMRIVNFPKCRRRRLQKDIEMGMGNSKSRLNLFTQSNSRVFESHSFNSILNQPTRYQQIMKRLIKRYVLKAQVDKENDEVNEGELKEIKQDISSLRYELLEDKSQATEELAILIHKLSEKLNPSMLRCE

Flag-AT1R-cherry = Flag-AT1R-cherry (UniProt P25095); test: co-IP; sequential: HEK293 cells with Flag-AT1R-cherry, HA-β-arrestin-1 and TRPC3-GFP, TRV120027 (100 nM) or vehicle 1 min; plasma membrane fractions; anti-Flag M2 agarose, elution with 3*Flag peptide, then anti-HA or anti-GFP beads; western blot

binding (TRPC3-GFP 1–790): binds
binding (TRPC3-GFP 178–848): binds
binding (TRPC3-GFP (wild type)): binds
binding (Flag-AT1R-cherry): binds
Substance: HA-β-arrestin-1 (wild type) (from UniProt P49407 1-418)
